Laboratory results taken from the supplement of paper PMC10849652.
The other results are listed elsewhere or left out.

Chains of the proteins cited; added tags and fusions are not shown. Lines headed by an entry give the natural chain unless they say otherwise; changes in a name come on top.
UniProt Q92769, whole entry, looked up: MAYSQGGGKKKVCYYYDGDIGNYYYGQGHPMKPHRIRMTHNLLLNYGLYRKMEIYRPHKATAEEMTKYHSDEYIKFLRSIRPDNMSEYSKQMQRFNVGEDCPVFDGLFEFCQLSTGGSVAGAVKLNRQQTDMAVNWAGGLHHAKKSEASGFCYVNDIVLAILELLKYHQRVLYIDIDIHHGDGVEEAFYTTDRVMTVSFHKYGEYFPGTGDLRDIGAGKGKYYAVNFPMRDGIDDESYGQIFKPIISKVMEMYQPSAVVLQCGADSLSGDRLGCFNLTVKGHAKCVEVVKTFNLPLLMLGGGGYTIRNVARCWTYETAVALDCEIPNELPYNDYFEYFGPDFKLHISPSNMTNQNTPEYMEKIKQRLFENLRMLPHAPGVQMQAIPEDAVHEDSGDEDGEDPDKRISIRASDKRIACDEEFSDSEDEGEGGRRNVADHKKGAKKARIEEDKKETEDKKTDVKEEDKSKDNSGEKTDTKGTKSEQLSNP
UniProt Q7Z4Q2: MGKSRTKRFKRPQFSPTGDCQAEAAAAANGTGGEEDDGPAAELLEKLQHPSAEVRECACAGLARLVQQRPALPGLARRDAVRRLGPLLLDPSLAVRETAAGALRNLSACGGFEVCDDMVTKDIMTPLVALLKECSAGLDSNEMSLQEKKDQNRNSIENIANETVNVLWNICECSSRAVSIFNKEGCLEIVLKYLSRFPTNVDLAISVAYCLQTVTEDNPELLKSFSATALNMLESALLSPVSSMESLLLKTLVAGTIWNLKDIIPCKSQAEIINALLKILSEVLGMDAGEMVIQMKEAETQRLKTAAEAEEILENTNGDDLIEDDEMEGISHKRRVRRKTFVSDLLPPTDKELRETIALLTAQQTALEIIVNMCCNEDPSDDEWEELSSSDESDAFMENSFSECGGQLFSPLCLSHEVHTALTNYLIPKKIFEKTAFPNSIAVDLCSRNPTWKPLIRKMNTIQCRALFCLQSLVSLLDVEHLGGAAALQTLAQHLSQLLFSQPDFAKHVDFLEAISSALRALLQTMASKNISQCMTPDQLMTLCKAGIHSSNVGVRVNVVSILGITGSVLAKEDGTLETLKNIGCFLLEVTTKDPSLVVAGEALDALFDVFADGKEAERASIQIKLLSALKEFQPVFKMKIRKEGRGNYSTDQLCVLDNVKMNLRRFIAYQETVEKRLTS
UniProt Q9Y4D8: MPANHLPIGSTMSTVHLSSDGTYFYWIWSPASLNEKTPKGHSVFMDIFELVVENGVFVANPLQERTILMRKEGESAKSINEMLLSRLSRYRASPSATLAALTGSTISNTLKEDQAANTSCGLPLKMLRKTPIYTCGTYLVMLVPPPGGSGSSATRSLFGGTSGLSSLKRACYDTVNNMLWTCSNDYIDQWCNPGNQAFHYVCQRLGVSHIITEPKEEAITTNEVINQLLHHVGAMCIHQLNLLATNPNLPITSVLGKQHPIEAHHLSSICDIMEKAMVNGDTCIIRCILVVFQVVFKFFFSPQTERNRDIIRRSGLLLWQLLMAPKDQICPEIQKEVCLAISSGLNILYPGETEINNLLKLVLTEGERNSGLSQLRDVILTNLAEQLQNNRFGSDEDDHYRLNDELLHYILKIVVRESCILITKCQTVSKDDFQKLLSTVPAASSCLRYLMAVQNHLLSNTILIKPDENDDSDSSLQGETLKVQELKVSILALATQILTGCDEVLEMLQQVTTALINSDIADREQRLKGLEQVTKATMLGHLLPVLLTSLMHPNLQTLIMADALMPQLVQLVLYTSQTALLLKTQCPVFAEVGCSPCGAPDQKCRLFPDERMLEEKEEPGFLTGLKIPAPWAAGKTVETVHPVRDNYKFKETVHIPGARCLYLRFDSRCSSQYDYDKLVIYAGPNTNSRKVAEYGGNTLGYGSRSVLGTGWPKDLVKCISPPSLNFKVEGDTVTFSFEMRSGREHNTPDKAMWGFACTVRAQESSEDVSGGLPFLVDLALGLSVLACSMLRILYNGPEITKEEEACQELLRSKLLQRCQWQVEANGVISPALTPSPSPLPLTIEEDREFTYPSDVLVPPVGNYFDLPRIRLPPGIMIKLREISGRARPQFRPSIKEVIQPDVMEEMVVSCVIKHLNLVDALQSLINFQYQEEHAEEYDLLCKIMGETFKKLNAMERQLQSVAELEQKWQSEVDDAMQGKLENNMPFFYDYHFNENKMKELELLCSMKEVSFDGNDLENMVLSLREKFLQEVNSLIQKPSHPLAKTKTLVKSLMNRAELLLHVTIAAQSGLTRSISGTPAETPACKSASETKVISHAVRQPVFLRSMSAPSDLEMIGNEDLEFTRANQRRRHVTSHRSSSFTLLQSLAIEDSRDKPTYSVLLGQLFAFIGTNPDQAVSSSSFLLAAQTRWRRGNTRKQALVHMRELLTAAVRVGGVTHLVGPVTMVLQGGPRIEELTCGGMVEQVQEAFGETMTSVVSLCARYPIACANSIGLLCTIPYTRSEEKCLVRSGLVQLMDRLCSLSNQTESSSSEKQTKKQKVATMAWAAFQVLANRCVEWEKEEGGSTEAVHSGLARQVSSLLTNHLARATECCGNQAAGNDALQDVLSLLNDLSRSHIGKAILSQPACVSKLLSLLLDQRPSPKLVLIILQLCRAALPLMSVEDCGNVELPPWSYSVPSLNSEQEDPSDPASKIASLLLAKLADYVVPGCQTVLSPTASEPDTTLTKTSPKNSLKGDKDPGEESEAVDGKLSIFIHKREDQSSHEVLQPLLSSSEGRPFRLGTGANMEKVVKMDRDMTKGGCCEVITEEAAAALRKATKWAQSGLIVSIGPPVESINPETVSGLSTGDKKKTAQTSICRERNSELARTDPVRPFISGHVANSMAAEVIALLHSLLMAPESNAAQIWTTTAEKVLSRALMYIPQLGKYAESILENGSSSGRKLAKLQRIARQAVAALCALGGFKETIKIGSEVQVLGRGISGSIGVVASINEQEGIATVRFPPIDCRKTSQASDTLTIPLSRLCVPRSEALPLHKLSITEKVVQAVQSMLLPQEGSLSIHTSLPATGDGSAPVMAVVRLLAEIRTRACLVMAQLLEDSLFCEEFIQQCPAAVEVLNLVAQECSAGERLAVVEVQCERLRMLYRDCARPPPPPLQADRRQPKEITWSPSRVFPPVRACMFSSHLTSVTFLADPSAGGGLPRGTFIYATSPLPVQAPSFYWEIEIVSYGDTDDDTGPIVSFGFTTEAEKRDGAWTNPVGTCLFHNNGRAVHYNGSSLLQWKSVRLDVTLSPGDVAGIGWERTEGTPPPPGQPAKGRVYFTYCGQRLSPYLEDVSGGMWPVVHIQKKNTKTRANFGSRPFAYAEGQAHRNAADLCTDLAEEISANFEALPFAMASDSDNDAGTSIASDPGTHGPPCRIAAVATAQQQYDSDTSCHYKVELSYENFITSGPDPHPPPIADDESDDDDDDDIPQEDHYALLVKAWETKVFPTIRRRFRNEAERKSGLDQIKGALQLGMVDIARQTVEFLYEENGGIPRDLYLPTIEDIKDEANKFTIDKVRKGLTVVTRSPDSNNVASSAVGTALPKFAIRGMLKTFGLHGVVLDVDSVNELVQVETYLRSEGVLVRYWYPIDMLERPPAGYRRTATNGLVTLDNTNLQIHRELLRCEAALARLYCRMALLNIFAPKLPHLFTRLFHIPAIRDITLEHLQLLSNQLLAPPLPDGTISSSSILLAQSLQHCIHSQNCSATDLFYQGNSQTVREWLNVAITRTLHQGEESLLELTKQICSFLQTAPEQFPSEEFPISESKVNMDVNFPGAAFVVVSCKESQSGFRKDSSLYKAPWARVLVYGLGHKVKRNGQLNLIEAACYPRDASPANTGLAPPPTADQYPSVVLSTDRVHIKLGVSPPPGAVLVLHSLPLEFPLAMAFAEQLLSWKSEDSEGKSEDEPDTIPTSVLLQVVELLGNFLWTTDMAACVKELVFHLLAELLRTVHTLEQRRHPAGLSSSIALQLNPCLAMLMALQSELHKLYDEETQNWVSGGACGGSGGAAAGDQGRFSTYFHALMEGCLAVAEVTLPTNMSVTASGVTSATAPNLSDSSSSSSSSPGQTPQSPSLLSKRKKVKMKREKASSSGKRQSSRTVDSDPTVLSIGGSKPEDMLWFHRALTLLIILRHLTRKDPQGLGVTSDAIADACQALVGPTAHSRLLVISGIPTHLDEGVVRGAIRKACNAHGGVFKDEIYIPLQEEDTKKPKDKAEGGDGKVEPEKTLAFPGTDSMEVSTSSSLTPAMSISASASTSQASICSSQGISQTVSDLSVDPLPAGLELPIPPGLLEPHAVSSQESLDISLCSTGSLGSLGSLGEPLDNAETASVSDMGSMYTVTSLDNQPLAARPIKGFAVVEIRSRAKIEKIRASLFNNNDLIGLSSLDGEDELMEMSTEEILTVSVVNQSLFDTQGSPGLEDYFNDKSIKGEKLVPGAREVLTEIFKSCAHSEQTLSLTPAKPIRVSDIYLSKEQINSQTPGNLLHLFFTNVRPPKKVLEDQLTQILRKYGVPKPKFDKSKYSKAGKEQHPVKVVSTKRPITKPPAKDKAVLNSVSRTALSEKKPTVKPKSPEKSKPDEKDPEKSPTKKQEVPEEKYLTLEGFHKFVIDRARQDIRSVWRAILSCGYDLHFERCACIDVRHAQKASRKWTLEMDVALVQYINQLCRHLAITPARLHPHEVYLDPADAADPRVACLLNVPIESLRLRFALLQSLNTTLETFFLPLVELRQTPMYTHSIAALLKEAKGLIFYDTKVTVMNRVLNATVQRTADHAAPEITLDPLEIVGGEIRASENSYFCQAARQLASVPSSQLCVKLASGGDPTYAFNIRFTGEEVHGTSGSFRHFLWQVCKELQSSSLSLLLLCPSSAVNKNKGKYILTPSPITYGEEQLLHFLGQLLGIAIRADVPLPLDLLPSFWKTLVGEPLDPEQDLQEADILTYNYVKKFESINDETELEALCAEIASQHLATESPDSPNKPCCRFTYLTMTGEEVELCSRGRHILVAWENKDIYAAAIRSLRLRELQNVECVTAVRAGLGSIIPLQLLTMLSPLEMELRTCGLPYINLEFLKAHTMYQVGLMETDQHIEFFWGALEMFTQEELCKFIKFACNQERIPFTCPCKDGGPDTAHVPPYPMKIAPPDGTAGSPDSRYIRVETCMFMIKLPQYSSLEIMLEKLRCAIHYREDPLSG
UniProt Q7Z4H7: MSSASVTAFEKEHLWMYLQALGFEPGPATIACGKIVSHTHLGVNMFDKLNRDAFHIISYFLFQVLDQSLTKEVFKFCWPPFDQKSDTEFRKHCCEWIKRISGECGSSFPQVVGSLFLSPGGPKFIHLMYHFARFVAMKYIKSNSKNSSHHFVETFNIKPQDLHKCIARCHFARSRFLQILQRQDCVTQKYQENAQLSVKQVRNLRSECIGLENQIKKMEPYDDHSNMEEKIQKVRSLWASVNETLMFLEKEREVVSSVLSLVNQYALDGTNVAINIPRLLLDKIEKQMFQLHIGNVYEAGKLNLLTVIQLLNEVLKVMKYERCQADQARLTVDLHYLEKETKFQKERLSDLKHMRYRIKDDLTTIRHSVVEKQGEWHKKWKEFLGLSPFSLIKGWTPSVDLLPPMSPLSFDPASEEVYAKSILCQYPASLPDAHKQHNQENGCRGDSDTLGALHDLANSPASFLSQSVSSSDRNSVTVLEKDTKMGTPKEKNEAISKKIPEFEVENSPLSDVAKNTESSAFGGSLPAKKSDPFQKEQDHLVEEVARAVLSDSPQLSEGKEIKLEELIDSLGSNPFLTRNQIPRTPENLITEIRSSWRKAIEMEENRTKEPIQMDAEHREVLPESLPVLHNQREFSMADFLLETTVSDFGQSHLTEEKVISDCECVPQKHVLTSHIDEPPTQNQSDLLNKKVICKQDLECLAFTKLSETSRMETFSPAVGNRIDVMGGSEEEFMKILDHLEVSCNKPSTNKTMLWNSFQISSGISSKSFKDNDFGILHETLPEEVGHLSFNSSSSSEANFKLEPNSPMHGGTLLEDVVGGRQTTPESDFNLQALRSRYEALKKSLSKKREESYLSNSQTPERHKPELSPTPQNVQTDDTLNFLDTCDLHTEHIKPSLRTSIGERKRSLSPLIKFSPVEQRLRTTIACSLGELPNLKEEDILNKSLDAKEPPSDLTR

Tests used:
Assay in all cases: log2 fold change, soluble protein after heating vs DMSO (PISA); higher = thermal stabilisation; K562 cells, 10 uM, 30 min; active = over 0.2 and 3.5 SD of the protein, either way, in both replicates (recomputed)
[1] = compound: NC(=O)Nc1cc(-c2cccc(F)c2)sc1C(=O)N[C@H]1CCCNC1
Summary of the method: (§1)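 Soluble protein was defined as the supernatant after 21,000xg for 90 min. It came from K562 cells at 2×10^6 cells/mL given 10 μM compound for 30 min, heated in aliquots for 3 min across 48°C-58°C, pooled, and extracted in PBS with 0.5% NP-40 at 4°C, and was quantified by TMTpro 16plex LC-MS/MS with equalised channel sums. Thermal stability against control samples, from duplicates, is reported as log2 fold change.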

[2] = compound: NC(=O)c1cnc(N[C@@H]2CCCC[C@@H]2N)nc1Nc1cccc(-n2nccn2)c1
Summary of the method: as §1

[3] = compound: NC1(c2ccc(-c3nc4ccn5c(=O)[nH]nc5c4cc3-c3ccccc3)cc2)CCC1
Summary of the method: as §1

[4] = compound: NCC(=O)Nc1ccc(-n2nc(C(F)(F)F)cc2-c2ccc3c(ccc4ccccc43)c2)cc1
Summary of the method: as §1

citarinostat = compound: O=C(CCCCCCNC(=O)c1cnc(N(c2ccccc2)c2ccccc2Cl)nc1)NO [citarinostat]
Summary of the method: as §1

silmitasertib = compound: O=C(O)c1ccc2c(c1)nc(Nc1cccc(Cl)c1)c1ccncc12 [silmitasertib]
Summary of the method: as §1

[5] = compound: O=C1NC(=O)C(c2cnc3ccccn23)=C1c1cn2c3c(cc(F)cc13)CN(C(=O)N1CCCCC1)CC2
Summary of the method: as §1

[6] = compound: c1cc(OCCN2CCCCC2)cc(-c2n[nH]c3ccc(-c4nnc[nH]4)cc23)c1
Summary of the method: as §1

entinostat = compound: Nc1ccccc1NC(=O)c1ccc(CNC(=O)OCc2cccnc2)cc1 [entinostat]
Summary of the method: as §1

vorinostat = compound: O=C(CCCCCCC(=O)Nc1ccccc1)NO [vorinostat]
Summary of the method: as §1

entospletinib = compound: c1cn2cc(-c3ccc4cn[nH]c4c3)nc(Nc3ccc(N4CCOCC4)cc3)c2n1 [entospletinib]
Summary of the method: as §1

Measured: log2 fold change

HDAC2 (UniProt Q92769)
inactive: [1] -0.01 | [2] -0.037 | [3] -0.013 | [4] -0.039 | silmitasertib 0.04 | [5] -0.021 | [6] -0.041
active: citarinostat 1.04

H3-3A (UniProt P84243)
inactive: [1] 0.072 | [3] -0.095 | [4] -0.096 | entinostat 0.104 | citarinostat 0.157 | silmitasertib -0.046 | [6] 0.028

HEATR3 (UniProt Q7Z4Q2)
inactive: [1] 0 | [3] -0.248 | [4] -0.103 | entinostat 0.052 | vorinostat -0.017 | citarinostat 0.075 | silmitasertib 0.02 | [5] -0.051 | [6] 0.047

HECTD4 (UniProt Q9Y4D8)
inactive: [3] 0.005 | [4] 0.065 | silmitasertib -0.09

HAUS6 (UniProt Q7Z4H7)
inactive: [1] 0.099 | [2] -0.542 | [3] -0.116 | entinostat 0.087 | citarinostat 0.143 | silmitasertib 0.116 | [5] 0.297 | [6] -0.196 | entospletinib 0.15
